Holding throughout (conditions): stereoisomer not certain
In assay [1] the test system is T1, OR7D4.
T1 sequence (whole entry): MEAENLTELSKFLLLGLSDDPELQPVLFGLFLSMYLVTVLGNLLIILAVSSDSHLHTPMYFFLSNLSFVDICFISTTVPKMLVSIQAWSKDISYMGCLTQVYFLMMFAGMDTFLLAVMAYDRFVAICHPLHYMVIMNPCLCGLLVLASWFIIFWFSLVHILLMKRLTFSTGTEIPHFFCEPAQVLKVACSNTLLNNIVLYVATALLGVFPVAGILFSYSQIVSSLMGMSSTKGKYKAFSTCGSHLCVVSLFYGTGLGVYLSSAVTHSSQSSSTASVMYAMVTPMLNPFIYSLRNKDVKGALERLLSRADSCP
In short, it runs like this: (§1)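 Whether a receptor–molecule pair is responsive (active) rests on the original authors' judgment that its measured signal was statistically different from baseline. Pairs without that judgment are non-responsive (inactive). Sources used varied assay methods, commonly transient luciferase assays in mammalian cell lines.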

Chains of the proteins cited; added tags and fusions are not shown. Lines headed by an entry give the natural chain unless they say otherwise; changes in a name come on top. Chains listed by the source or under a name are the forms on record and can include a tag or linker.
UniProt Q6IFN5: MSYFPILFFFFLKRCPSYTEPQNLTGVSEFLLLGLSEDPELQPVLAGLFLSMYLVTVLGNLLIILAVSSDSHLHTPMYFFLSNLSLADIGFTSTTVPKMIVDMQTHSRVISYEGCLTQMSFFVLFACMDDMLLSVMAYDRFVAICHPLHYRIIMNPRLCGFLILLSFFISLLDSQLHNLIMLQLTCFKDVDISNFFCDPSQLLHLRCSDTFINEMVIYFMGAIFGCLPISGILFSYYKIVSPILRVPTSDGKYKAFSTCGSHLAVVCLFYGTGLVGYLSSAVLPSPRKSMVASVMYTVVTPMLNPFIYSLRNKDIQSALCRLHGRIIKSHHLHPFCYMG
OR7G2, as listed by the source: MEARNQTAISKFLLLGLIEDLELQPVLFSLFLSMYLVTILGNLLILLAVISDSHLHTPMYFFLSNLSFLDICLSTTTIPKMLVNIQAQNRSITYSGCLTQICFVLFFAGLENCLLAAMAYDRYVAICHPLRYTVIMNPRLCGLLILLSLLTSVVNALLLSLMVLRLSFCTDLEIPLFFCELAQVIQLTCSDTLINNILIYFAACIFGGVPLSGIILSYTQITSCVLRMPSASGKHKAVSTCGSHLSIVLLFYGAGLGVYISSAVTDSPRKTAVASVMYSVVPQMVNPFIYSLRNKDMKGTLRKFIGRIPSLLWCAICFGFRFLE
OR7D4 S84N, as listed by the source, stated change not applied: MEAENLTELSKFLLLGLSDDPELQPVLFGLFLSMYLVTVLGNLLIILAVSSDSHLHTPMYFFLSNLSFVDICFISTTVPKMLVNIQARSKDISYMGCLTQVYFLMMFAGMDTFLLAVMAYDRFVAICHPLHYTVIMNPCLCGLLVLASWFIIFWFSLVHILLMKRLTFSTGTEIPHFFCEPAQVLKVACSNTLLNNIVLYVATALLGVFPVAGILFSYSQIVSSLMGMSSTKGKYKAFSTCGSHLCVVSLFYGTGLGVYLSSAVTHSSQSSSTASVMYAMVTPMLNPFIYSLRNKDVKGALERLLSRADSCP
OR7D4 T133M, as listed by the source, stated change not applied: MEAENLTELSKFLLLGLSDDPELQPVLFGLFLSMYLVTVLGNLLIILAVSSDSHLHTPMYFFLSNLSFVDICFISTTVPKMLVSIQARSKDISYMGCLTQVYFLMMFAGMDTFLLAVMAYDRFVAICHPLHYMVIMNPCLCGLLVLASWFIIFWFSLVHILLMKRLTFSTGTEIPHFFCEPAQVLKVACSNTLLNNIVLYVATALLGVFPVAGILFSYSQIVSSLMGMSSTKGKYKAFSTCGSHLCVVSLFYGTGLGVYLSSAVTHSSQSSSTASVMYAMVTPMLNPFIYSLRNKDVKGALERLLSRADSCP
OR7D4 R88W, as listed by the source, stated change not applied: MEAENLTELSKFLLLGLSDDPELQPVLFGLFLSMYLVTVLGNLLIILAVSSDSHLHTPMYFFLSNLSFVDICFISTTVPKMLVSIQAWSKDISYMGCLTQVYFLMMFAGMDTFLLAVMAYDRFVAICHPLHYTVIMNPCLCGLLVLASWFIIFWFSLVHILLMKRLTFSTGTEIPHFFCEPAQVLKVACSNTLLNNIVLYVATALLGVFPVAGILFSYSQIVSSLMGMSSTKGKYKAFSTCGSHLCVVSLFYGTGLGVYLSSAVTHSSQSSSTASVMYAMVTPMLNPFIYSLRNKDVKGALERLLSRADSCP
OR7D4, as listed by the source: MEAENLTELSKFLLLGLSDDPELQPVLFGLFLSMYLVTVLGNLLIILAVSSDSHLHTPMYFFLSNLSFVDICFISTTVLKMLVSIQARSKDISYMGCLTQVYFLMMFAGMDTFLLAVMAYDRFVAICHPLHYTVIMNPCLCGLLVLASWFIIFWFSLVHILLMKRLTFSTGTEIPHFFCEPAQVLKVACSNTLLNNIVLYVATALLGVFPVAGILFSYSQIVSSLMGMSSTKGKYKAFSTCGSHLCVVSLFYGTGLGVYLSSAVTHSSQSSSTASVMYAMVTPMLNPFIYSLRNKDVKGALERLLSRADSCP

For another assay, the target named is T2, OR7G1 (Homo sapiens) (UniProt Q8NGA0).
T2 sequence (whole entry): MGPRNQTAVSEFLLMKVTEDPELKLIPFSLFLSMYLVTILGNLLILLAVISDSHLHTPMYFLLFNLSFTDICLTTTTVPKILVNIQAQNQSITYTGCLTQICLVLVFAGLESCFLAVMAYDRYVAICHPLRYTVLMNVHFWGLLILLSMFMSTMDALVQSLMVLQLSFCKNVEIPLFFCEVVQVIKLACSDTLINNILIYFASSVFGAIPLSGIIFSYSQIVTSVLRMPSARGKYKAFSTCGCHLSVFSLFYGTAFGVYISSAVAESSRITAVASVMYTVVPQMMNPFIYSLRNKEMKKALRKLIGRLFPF
In short, it runs like this: as §1

In the next assay the target is T3, OR7G2 (Homo sapiens) (UniProt Q8NG99).
T3 sequence (whole entry): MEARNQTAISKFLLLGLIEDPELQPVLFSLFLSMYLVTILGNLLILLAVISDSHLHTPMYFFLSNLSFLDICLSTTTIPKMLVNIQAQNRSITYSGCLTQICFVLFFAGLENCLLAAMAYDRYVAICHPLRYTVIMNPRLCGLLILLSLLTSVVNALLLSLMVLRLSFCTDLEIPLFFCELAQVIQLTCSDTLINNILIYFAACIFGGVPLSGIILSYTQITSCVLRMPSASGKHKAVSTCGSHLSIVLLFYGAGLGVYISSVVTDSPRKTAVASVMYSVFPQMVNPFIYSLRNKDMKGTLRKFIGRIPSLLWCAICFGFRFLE
In short, it runs like this: as §1

Assay [2] deals with T4, OR7G2.
T4 sequence (whole entry): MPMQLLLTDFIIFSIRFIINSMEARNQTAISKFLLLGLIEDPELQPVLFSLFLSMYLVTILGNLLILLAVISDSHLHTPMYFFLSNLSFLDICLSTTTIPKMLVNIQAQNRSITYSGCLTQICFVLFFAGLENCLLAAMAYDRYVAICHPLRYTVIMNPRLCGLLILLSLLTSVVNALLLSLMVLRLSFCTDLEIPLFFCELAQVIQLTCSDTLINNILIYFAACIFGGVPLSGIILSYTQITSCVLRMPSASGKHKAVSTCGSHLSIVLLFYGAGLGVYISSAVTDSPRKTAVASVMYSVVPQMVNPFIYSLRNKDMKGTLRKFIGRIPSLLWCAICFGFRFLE
In a few lines:
as §1

The target of a further assay is T5, OR7G3 (Homo sapiens) (UniProt Q8NG95).
T5 sequence (whole entry): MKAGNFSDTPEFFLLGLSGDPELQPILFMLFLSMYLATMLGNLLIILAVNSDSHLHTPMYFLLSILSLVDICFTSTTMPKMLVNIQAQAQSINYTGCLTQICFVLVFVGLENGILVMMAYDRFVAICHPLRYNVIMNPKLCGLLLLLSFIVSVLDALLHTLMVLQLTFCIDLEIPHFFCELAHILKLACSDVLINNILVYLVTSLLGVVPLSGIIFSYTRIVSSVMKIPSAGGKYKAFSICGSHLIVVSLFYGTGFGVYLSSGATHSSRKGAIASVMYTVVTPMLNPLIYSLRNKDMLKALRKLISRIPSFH
In short, it runs like this: as §1

Assay [3] has as its system OR7G2. In short, it runs like this: as §1
The source holds these as a separate data set.

For assay [4], the system named is OR7G2. In short, it runs like this:
as §1
This is another data set of the same source.

Assay [5] has as its system OR7G2. In a few lines: as §1
The source holds these as a separate data set.

The test system of another assay is OR7D4 R88W. In short, it runs like this: as §1
The next assay has as its system OR7D4 S84N. In a few lines: as §1
The test system of a further assay is OR7D4 T133M. In a few lines:
as §1

For assay [6], the system named is OR7D4. In a few lines:
as §1
The source holds these as a separate data set.

The target in the next assay is OR7E24 (Homo sapiens) (UniProt Q6IFN5). In a few lines:
as §1

The entries are a selection whose mix differs from that of the whole data set. The calls were merged from several studies; some rest on single wells. The list shows a part of the results.
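Note: active if original authors judged signal statistically different from baseline.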

Consider `CC(C)C(=O)O`, for which the “odorant receptor agonist call” value with OR7D4 [1], with OR7G1 (Homo sapiens), with OR7G2 (Homo sapiens), in the assay with OR7G2 [2] and with OR7G3 (Homo sapiens) was “inactive” each time.

For `C=CC(C)(O)CCC=C(C)C` (stereo not given), the “odorant receptor agonist call” value in the assay with OR7D4 [1], with OR7G1 (Homo sapiens), with OR7G2 (Homo sapiens), in the assay on OR7G2 [2] and with OR7G3 (Homo sapiens) was “inactive” each time.

As to `CC1CCC(C(C)C)C(O)C1` (stereo not given), the “odorant receptor agonist call” value in the assay with OR7D4 [1], in the assay with OR7G1 (Homo sapiens), with OR7G2 [2] and with OR7G3 (Homo sapiens) was “inactive” throughout. Also, in the assay with OR7G2 (Homo sapiens), the “odorant receptor agonist call” value is “active”.

`COC(=O)c1ccccc1O`: the “odorant receptor agonist call” value in the assay with OR7D4 [1], with OR7G1 (Homo sapiens), with OR7G2 (Homo sapiens), in the assay with OR7G2 [2] and with OR7G3 (Homo sapiens) was “inactive” throughout.

As to `CCCC(=O)O`, the “odorant receptor agonist call” value in the assay with OR7D4 [1], with OR7G1 (Homo sapiens), with OR7G2 (Homo sapiens), in the assay on OR7G2 [3], in the assay on OR7G2 [4] and in the assay on OR7G2 [2] was “inactive” in each case. Further, the “odorant receptor agonist call” value with OR7G3 (Homo sapiens) is “inactive”. Also, in the assay on OR7G2 [5], the “odorant receptor agonist call” value was “active”.

In the case of `CCC=CCCO`, the “odorant receptor agonist call” value in the assay with OR7D4 [1], with OR7G1 (Homo sapiens), with OR7G2 (Homo sapiens), with OR7G2 [2] and with OR7G3 (Homo sapiens) was “inactive” throughout.

Regarding `CC12C=CCC1C1CCC3=CC(=O)CCC3(C)C1CC2` (stereo not given), the “odorant receptor agonist call” value in the assay on OR7D4 R88W, with OR7D4 S84N and in the assay on OR7D4 T133M was “active” throughout. The “odorant receptor agonist call” value with OR7D4 [6], in the assay with OR7D4 [1], in the assay with OR7E24 (Homo sapiens), with OR7G1 (Homo sapiens), with OR7G2 (Homo sapiens) and with OR7G2 [2] was “inactive” throughout. In addition, in the assay with OR7G3 (Homo sapiens), the “odorant receptor agonist call” value was “inactive”.

On to `CCCCCCCC=CC=O`, for which the “odorant receptor agonist call” value with OR7D4 [1], with OR7G1 (Homo sapiens), with OR7G2 (Homo sapiens), in the assay on OR7G2 [2] and with OR7G3 (Homo sapiens) was “inactive” in each case.

In the case of `CCCCCC(=O)O`, the “odorant receptor agonist call” value in the assay on OR7D4 [1], with OR7G1 (Homo sapiens), with OR7G2 (Homo sapiens), with OR7G2 [2] and in the assay with OR7G3 (Homo sapiens) was “inactive” in each case.

In the case of `C=C(C)C1CC=C(C)C(=O)C1` (stereo not given), the “odorant receptor agonist call” value with OR7D4 [1] is “inactive”.

As to `CCCCCCCCC=O`, in the assay on OR7D4 [1], the “odorant receptor agonist call” value is “inactive”.
